Reference: article PMC5090039

Target: HCV core (J6/JFH genome), GLuc2 fusion (hepatitis C virus (J6/JFH genome))
Test: split reporter; protein-fragment complementation assay (PCA) with split Gaussia luciferase; GLuc1-prey (ESCRT) and GLuc2-bait (HCV) plasmids cotransfected pairwise into 293T cells in 96-well plates, lysed at 24 h; normalized luminescence ratio (NLR); positive at z score >2.2 (NLR >25)

Binder | binding
SLC9A6, GLuc1 fusion (protein, UniProt Q92581 1-701) MARRGWRRAPLRRGVGSSPRARRLMRPLWLLLAVGVFDWAGASDGGGGEARAMDEEIVSEKQAEESHRQDSANLLIFILLLTLTILTIWLFKHRRARFLHETGLAMIYGLLVGLVLRYGIHVPSDVNNVTLSCEVQSSPTTLLVNVSGKFYEYMLKGEISSHELNNVQDNEMLRKVTFDPEVFFNILLPPIIFYAGYSLKRRHFFRNLGSILAYAFLGTAISCFVIGSIMYGCVTLMKVTGQLAGDFYFTDCLLFGAIVSATDPVTVLAIFHELQVDVELYALLFGESVLNDAVAIVLSSSIVAYQPAGDNSHTFDVTAMFKSIGIFLGIFSGSFAMGAATGVVTALVTKFTKLREFQLLETGLFFLMSWSTFLLAEAWGFTGVVAVLFCGITQAHYTYNNLSTESQHRTKQLFELLNFLAENFIFSYMGLTLFTFQNHVFNPTFVVGAFVAIFLGRAANIYPLSLLLNLGRRSKIGSNFQHMMMFAGLRGAMAFALAIRDTATYARQMMFSTTLLIVFFTVWVFGGGTTAMLSCLHIRVGVDSDQEHLGVPENERRTTKAESAWLFRMWYNFDHNYLKPLLTHSGPPLTTTLPACCGPIARCLTSPQAYENQEQLKDDDSDLILNDGDISLTYGDSTVNTEPATSSAPRRFMGNSSEDALDRELAFGDHELVIRGTRLVLPMDDSEPPLNLLDNTRHGPA | binds
CHMP4B, GLuc1 fusion (protein, UniProt Q9H444 1-224) MSVFGKLFGAGGGKAGKGGPTPQEAIQRLRDTEEMLSKKQEFLEKKIEQELTAAKKHGTKNKRAALQALKRKKRYEKQLAQIDGTLSTIEFQREALENANTNTEVLKNMGYAAKAMKAAHDNMDIDKVDELMQDIADQQELAEEISTAISKPVGFGEEFDEDELMAELEELEQEELDKNLLEISGPETVPLPNVPSIALPSKPAKKKEEEDDDMKELENWAGSM | binds
CHMP1A, GLuc1 fusion (protein, UniProt Q9HD42 1-196) MDDTLFQLKFTAKQLEKLAKKAEKDSKAEQAKVKKALLQKNVECARVYAENAIRKKNEGVNWLRMASRVDAVASKVQTAVTMKGVTKNMAQVTKALDKALSTMDLQKVSSVMDRFEQQVQNLDVHTSVMEDSMSSATTLTTPQEQVDSLIMQIAEENGLEVLDQLSQLPEGASAVGESSVRSQEDQLSRRLAALRN | binds

No constants are given. Whether binding was seen depends on the method and setting. In cells and extracts the contact can be indirect. A result given as binding can be weak or reduced; the word gives no strength. Where a sequence is shown, tags or fusion partners need not be part of it.
